Measurements: the supplement of paper PMC11150407
Several values for one entry are separate records, joined by “and”; a condition that tells them apart may be missing. Identical values can stand only once. Out of some 2,100 compounds screened, about 180 (8.6%) showed an effect of 50% or more. Some of the results follow.

These compounds were tested on MOLM1 and UCSD/AML1 (averaged) (assay: cell viability relative to DMSO control (POC); higher = less growth inhibition). Details: 1 µM; 72 h.
Method: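 Primary viability screen in the 3q26 EVI1-high AML cell lines MOLM1 and UCSD/AML1 (1.5e3 cells/well, 384-well), compounds at 1 uM for 72 h. ATP CellTiter-Glo read-out given as percent of viable cells over DMSO control (POC), averaged over duplicates. DMSO was the negative control and 5 uM etoposide the positive control. This mapping covers the MicroSource Spectrum and Selleck anticancer libraries (drug names).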

Compound | cell viability
C[C@]12CC[C@H](O)C[C@H]1CC[C@@H]1[C@@H]2CC[C@]2(C)[C@@H](C3=CC(=O)OC3)[C@@H](O)C[C@]12O | 99.6%
Cc1ccc(/N=C/N(C)/C=N/c2ccc(C)cc2C)c(C)c1 | 51.7%
O=c1c2ccccc2[se]n1-c1ccccc1 | 97.5%
C[C@]12CC[C@H]3[C@@H](CCC4=CC(=O)CC[C@@]43C)[C@@H]1CC[C@@H]2O | 103%
O=c1ccc2cc(O[C@@H]3O[C@H](CO)[C@@H](O)[C@H](O)[C@H]3O)c(O)cc2o1 | 100% and 101%
NCC(O)c1ccc(O)cc1 (configuration not stated) | 104%
O=C(NC(=O)c1ccccc1Cl)Nc1ccc(OC(F)(F)F)cc1 | 113%
C[C@]12CCC(=O)C(O)=C1CC[C@@H]1[C@@H]2CC[C@]2(C)C(=O)CC[C@@H]12 [Formestane] | 96.3%
C[C@]12CCC(=O)C(O)=C1CC[C@@H]1[C@@H]2CC[C@]2(C)C(=O)CC[C@@H]12 | 111%
CNC(Cc1c[nH]c2ccccc12)C(=O)O (configuration not stated) | 102%
CNC(C)(C)Cc1ccccc1 | 116%
CC(C)C[C@H]1C(=O)N2CCC[C@H]2[C@]2(O)O[C@](NC(=O)[C@@H]3C=C4c5cccc6[nH]c(Br)c(c56)C[C@H]4N(C)C3)(C(C)C)C(=O)N12 | 108%
CN1[C@@H]2CC[C@H]1C[C@@H](OC(=O)C(CO)c1ccccc1)C2 (some centres not stated) | 104%
O=c1c(O)c(-c2ccc(O)c(O)c2)oc2c(O)c(O)cc(O)c12 | 103%
CN1CCc2cc3c(cc2C1O)OCO3 (configuration not stated) | 102%
COc1ccc(C(=O)O)cc1OC | 99.7%
CC1(C)C2CC(=O)[C@]3(C)C(CC[C@@]4(C)[C@H](c5ccoc5)OC(=O)[C@H]5O[C@]543)[C@@]2(C)C(=O)C[C@H]1O (some centres not stated) | 87.6%
NCC(=O)c1ccccc1 | 130%
CNC(=O)Oc1ccc2c(c1)[C@]1(C)CCN(C)[C@@H]1N2C | 106%
CN(C)C(=O)Oc1cccc([N+](C)(C)C)c1 | 93.5%
CN1[C@H]2C[C@H](OC(=O)[C@H](CO)c3ccccc3)C[C@@H]1[C@@H](O)C2 | 103%
COc1ccc(C(CN(C)C)C2(O)CCCCC2)cc1 (configuration not stated) | 115%
C#CCN(C)[C@H](C)Cc1ccccc1 | 84.3%

Compound | cell viability
C[C@@H]1O[C@@H](O[C@@H]2C=C3CC[C@@H]4[C@H](CC[C@]5(C)[C@@H](c6ccc(=O)oc6)CC[C@]45O)[C@@]3(C)CC2)[C@H](O)[C@H](O)[C@H]1O | 2.01%
CN(C)C(=O)Oc1ccc[n+](C)c1 | 110%
O=c1[nH]c2ccccc2n1C1CCN(CCCC(c2ccc(F)cc2)c2ccc(F)cc2)CC1 | 94.7%
CC(=O)[O][Hg][c]1ccccc1 | 1.17%
CC(=O)Nc1cc([As](=O)(O)O)ccc1O | 95.1%
Cc1cc2c(C(C)C)c(O)c(O)c(C=O)c2c(O)c1-c1c(C)cc2c(C(C)C)c(O)c(O)c(C=O)c2c1O | 85.6%
CC1=C2C[C@H]3[C@@H](CC=C4C[C@@H](O)CC[C@@]43C)[C@@H]2CC[C@]12O[C@@H]1C[C@H](C)CN[C@H]1[C@H]2C [Cyclopamine] | 91.3%
COc1cccc2c1cc([N+](=O)[O-])c1c(C(=O)O)cc3c(c12)OCO3 | 84.4%
COP(=S)(OC)Oc1cc(Cl)c(Cl)cc1Cl | 122%
COc1cc2occc2c2oc(=O)ccc12 | 110%
Nc1ccc([As](=O)(O)O)cc1 | 94.1%
COC1=C[C@]23CCCN2CCc2cc4c(cc2[C@@H]3[C@@H]1O)OCO4 | 98.9%
NCCCNCCSP(=O)(O)O | 101%
c1ccc2c(c1)[nH]c1cnccc12 | 92.1%
C[C@@H]1CC[C@]2(NC1)O[C@H]1C[C@H]3[C@@H]4CC=C5C[C@@H](O)CC[C@]5(C)[C@H]4CC[C@]3(C)[C@H]1[C@@H]2C | 94.1%
COc1ccc(OC)c(C(O)C(C)N)c1 (configuration not stated) | 99.8%
CCC(=O)O[C@H]1CC[C@H]2[C@@H]3CCC4=CC(=O)CC[C@]4(C)[C@H]3CC[C@]12C | 97.6%
C[C@H]1CC[C@]2(NC1)O[C@H]1C[C@H]3[C@@H]4CC[C@H]5C[C@@H](O[C@@H]6O[C@H](CO)[C@H](O[C@@H]7O[C@H](CO)[C@@H](O)[C@H](O[C@@H]8OC[C@@H](O)[C@H](O)[C@H]8O)[C@H]7O[C@@H]7O[C@H](CO)[C@@H](O)[C@H](O)[C@H]7O)[C@H](O)[C@H]6O)CC[C@]5(C)[C@H]4CC[C@]3(C)[C@H]1[C@@H]2C | 65.2%
Cc1c(O)c(O)cc2c1CC=C1[C@@]2(C)CC[C@@]2(C)[C@@H]3C[C@](C)(C(=O)O)CC[C@]3(C)CC[C@]12C | 11.5%
O=C1CCO1 | 91%
CC(=O)O[C@@H]1C[C@H]2C(C)(C)C(=O)C=C[C@]2(C)[C@H]2CC[C@]3(C)C(=CC(=O)O[C@H]3c3ccoc3)[C@@]21C | 75.1%
N[C@@H]1C[C@H]1c1ccccc1.N[C@H]1C[C@@H]1c1ccccc1 | 93.1%
COc1cc(OC)c(OC)cc1C=O | 98.1%

Compound | cell viability
C[N+]1(C)CCCC(OC(=O)C(O)(c2ccccc2)c2ccccc2)C1 (configuration not stated) | 98.3%
CN1C2CCC1CC(O)C2 (configuration not stated) | 109%
CCCC(C)(COC(N)=O)COC(=O)NC(C)C (configuration not stated) | 112%
COC(C)(C)CCC[C@H](C)C/C=C/C(C)=C/C(=O)OC(C)C | 102%
C[C@@]12C(=O)OC(=O)[C@]1(C)[C@H]1CC[C@@H]2O1 | 101%
Cl[C@H]1[C@H](Cl)[C@@H](Cl)[C@@H](Cl)[C@H](Cl)[C@H]1Cl | 106%
C=C1C[C@@H]2[C@H](CC[C@]3(C)C(=O)CC[C@@H]23)[C@@]2(C)C=CC(=O)C=C12 [Exemestane] | 100%
CC(C)=CCC[C@]1(C)C=Cc2c(O)c3c(c(CC=C(C)C)c2O1)O[C@]12C(=C[C@@H]4C[C@H]1C(C)(C)O[C@@]2(C/C=C(/C)C(N)=O)C4=O)C3=O | 13.2%
CC1CC(Cl)CCC1C(=O)OC(C)(C)C (configuration not stated) | 102%
COc1cc([C@@H]2c3cc4c(cc3[C@H](OC(C)=O)[C@H]3COC(=O)[C@@H]23)OCO4)cc(OC)c1OC | 34.9%
O=P1(N(CCCl)CCCl)NCCCO1 (configuration not stated) [Clafen (Cyclophosphamide)] | 99.4%
O=P1(N(CCCl)CCCl)NCCCO1 (configuration not stated) [Cyclophosphamide monohydrate] | 102%
O=P1(N(CCCl)CCCl)NCCCO1 (configuration not stated) | 96.6%
c1ccc2c(c1)sc1ccccc12 | 104%
CN1C(=O)CCS(=O)(=O)C1c1ccc(Cl)cc1 (configuration not stated) | 106%
C=CCC1(C(C)CCC)C(=O)NC(=S)NC1=O (configuration not stated) | 89.9%
CCCCCCCCCCCCCCCC[n+]1ccccc1 | 62.3%
c1ccc(/N=N/c2ccccc2)cc1 | 96.4%
O=C1CCCN1CC#CCN1CCCC1 | 107%
CC1=C2[C@H]3OC(=O)[C@@H](C)[C@@H]3CC[C@@]2(C)C=CC1=O | 109%
CCC(N)C(O)c1ccc(O)c(O)c1 (configuration not stated) | 93.3%
C[C@](O)(COc1ccc(C#N)cc1)C(=O)Nc1ccc(C#N)c(C(F)(F)F)c1 [Ostarine (MK-2866)] | 93.7%
CC(=O)O[C@H]1C[C@H](O[C@H]2[C@@H](O)C[C@H](O[C@H]3[C@@H](O)C[C@H](O[C@H]4CC[C@@]5(C)[C@H](CC[C@@H]6[C@@H]5C[C@@H](O)[C@]5(C)[C@@H](C7=CC(=O)OC7)CC[C@]65O)C4)O[C@@H]3C)O[C@@H]2C)O[C@H](C)[C@H]1O[C@@H]1O[C@H](CO)[C@@H](O)[C@H](O)[C@H]1O | 3.89%

Compound | cell viability
CC(=O)Nc1ccc(OC[C@](C)(O)C(=O)Nc2ccc([N+](=O)[O-])c(C(F)(F)F)c2)cc1 [Andarine (GTX-007)] | 90.5%
COc1ccc(CCN2CCC(Nc3nc4ccccc4n3Cc3ccc(F)cc3)CC2)cc1 | 95.2%
O=C1C=C2C(=CCOC2O)O1 (configuration not stated) | 1.61%
COc1cc2c(cc1OC)[C@@]13CCN4CC5=CCO[C@H]6CC(=O)N2[C@H]1[C@H]6[C@H]5C[C@H]43 | 104%
COC(=O)C1=CCCN(C)C1 | 98.5%
C=C(C)[C@H]1Cc2c(ccc3c2O[C@@H]2COc4cc(OC)c(OC)cc4[C@@H]2C3=O)O1 | 26.4%
O=C(NC(=O)c1c(F)cccc1F)Nc1cc(Cl)c(OC(F)(F)C(F)C(F)(F)F)cc1Cl (configuration not stated) | 93.9%
COc1cc2c(cc1OC)[C@H](C)NCC2 | 94.2%
COc1ccc(Cc2nccc3cc(OC)c(OC)cc23)cc1OC | 89%
CCC1(CC)C(=O)C=CNC1=O | 98.1%
C[C@@H]1O[C@@H](O[C@H]2C[C@@H](O)[C@]3(CO)[C@H]4[C@H](O)C[C@]5(C)[C@@H](C6=CC(=O)OC6)CC[C@]5(O)[C@@H]4CC[C@]3(O)C2)[C@H](O)[C@H](O)[C@H]1O | 1.94%
COc1ccc2c3c([nH]c2c1)C(C)=NCC3 | 94.2%
NCCc1ccc(O)cc1 | 103%
CN(C)C(=O)Oc1cc(OC(=O)N(C)C)cc(C(O)CNC(C)(C)C)c1 (configuration not stated) | 110%
CCn1cc(C(=O)O)c(=O)c2cc3c(cc21)OCO3 | 118%
C[C@]12CC[C@H](O)C[C@@H]1CC[C@@H]1[C@@H]2CC[C@]2(C)C(=O)CC[C@@H]12 | 98.7%
C[N+]1(C)[C@@H]2C[C@@H](OC(=O)[C@H](CO)c3ccccc3)C[C@H]1[C@@H]1O[C@@H]12 | 102%
CO[C@H]1C[C@H](O[C@H]2CC[C@]3(C=O)[C@H]4CC[C@]5(C)[C@@H](C6=CC(=O)OC6)CC[C@]5(O)[C@@H]4CC[C@]3(O)C2)O[C@H](C)[C@H]1O | 3.81%
CCC1(c2ccc(N)cc2)CCC(=O)NC1=O (configuration not stated) | 102%
CCC1(c2ccc(N)cc2)CCC(=O)NC1=O (configuration not stated) [Aminoglutethimide (Cytadren)] | 64.7%
O=[N+]([O-])c1cc([As](=O)(O)O)ccc1O | 104%
C[C@]12C=CC(=O)C=C1CC[C@@H]1[C@@H]2CC[C@]2(C)C(=O)CC[C@@H]12 | 101%
CCN1C[C@]2(OC(=O)c3ccccc3NC(C)=O)CC[C@H](OC)[C@@]34[C@@H]2C[C@@H]([C@@H]13)[C@@]1(O)C[C@H](OC)[C@H]2C[C@@H]4[C@]1(O)[C@H]2OC | 96.8%
